Drawing on patent US20040043420A1, “Method of identifying conformation-sensitive binding peptides and uses thereof” (priority 2003, published 2004), this text covers binding for five molecules.

These are yes or no findings as the source states them, for the method shown. A result given as binding can be weak or reduced; the word gives no strength.

Test [1] addresses Estrogen Receptor (Homo sapiens (Human)). Briefly: phage peptide, ER + estradiol.
For test [2] the target is unchanged. Briefly: phage isolation method (Table 3).
For test [3] the target is unchanged. Briefly: phage peptide, unliganded ER.

HSFPRESLLVRLLQGG [phage 42]: in test [1], the binding entry was “binds”.

As for HGPLTLNLLRSSGG [#41 ER + estradiol], the binding result in test [2] is “binds”.

Regarding SRWESPLGTWEWSR [phage 4], the binding entry in test [3] was “binds”.

For the molecule SAACATISHYLMGG [#48 ER], the binding entry in test [2] was “binds”.

Consider SSWVVLRDLPWGSR [phage 29], for which the binding result in test [3] was “binds”.
